Results are given in words; binding and its absence hold for the method and conditions named.
Assays:
[1] = substrate: CBP; experiment: mammalian two-hybrid
[2] = target: PCAF; experiment: mammalian two-hybrid

B1: VP16/6-6CL1 (protein)
chain: ENTPKENSMKVREWNNKGGHCCKLETQELEPKFNLMQILQDNGNLSKMQARIAFSAYLQHVQIRLMKDSGGQTFSASWAAKEDEQMELVVRFLKRASNNLQHSLRMVLPSRRLALLERRRILAHQLGDFIIVYNKETEQMAEKKSKKKVEEEEEDGVNMENFQEFIRQASEAELEEVLTFYTQKNKSASVFLGTHSKISKNNNNYSDSGAKG
In the case of B1, the binding [1] is reported as “no binding” and the binding [2] is reported as “no binding”.

From patent US20070128627A1 (US Dept. of Health and Human Services, published 2007)
